For test [1], the target named is T1, GST-Δ13-ARL5A T30N (human) (UniProt Q9Y689).
T1 sequence: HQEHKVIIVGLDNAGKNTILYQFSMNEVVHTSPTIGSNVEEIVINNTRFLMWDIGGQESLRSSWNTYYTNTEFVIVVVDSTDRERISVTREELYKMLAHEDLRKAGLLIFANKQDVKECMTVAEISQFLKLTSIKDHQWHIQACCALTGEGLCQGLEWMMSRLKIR
Description: pull-down; GST-Δ13ARL5 variants on glutathione-Sepharose beads; detergent extracts of HeLa stably co-expressing GFP-PI4KB and HA-ARMH3; 4 °C overnight; blot for GFP; only the target purified.

Sequences of proteins named here, by UniProt entry; tags and fusion partners are left off.
UniProt Q9UBF8: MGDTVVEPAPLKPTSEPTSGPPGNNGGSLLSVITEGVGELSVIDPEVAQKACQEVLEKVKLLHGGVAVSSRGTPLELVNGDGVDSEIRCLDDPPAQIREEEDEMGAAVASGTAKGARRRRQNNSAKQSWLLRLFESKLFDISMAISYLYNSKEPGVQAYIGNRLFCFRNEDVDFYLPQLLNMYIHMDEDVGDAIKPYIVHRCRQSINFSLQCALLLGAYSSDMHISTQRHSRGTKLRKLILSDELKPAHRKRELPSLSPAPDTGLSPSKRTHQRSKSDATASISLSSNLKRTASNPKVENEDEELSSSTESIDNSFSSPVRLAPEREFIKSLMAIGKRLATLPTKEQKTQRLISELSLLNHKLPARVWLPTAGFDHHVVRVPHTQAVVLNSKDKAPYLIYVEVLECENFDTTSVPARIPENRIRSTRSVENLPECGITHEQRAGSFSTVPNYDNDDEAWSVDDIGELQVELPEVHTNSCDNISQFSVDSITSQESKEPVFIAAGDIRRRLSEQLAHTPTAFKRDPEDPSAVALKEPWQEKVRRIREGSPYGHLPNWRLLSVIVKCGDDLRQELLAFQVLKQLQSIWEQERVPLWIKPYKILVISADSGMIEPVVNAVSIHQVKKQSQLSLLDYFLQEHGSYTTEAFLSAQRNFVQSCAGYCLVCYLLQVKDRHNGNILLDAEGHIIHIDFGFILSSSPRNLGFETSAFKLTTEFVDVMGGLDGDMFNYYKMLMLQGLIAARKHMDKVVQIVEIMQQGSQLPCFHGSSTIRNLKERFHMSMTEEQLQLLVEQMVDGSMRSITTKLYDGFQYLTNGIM

Test [2] deals with T2, GST-Δ13-ARL5B T30N (human) (UniProt Q96KC2).
T2 sequence: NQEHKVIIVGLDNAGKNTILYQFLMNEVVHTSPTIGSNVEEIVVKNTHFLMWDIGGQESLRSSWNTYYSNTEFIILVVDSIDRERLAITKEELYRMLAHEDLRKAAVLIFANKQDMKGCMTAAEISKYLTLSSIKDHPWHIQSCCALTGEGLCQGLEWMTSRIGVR
The description is as above.

These are yes or no findings as the source states them, for the method shown. Binding seen in cells or lysates may run through a third protein. Sequences can lack the tags named with a protein.

In the case of “GFP-PI4KB (from UniProt Q9UBF8 1-816) (enzyme)”, the binding entry in test [1] and in test [2] was “no binding” throughout.

Source of the values: paper PMC11585589.
